Experimental data: PubChem BioAssay AID1224826 (NIAID, 2016)

Aim: 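Knock-downs that raise or lower Tnf reporter signal after endotoxin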 (primary screen)
System: RAW264.7 G9 macrophages from mouse bearing reporters for p65 (GFP) and the Tnf promoter (mCherry)
Knock-down reagent: siRNA pool against mouse genes, 100 nM
Duration: 16 h of LPS stimulation, after 2 days of siRNA transfection
Challenge: bacterial lipopolysaccharide (Salmonella minnesota R595), 10 ng/ml
Detection: 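Imaged Tnf reporter mCherry in nuclei, minus background, normalised per plate to the median and expressed as robust z-scores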
Reading the numbers: Tnf reporter robust z-score: higher = stronger Tnf promoter reporter signal after LPS
Hit rule: 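a well counts as active at a score of -1.3 or below (Tlr4 knock-down control median) or above 3 (raised signal); controls and wells holding fewer than 50 cells are excluded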
Meaning of the calls: active = Tnf reporter clearly lowered or raised; inactive = no clear change in Tnf reporter
Shown is one part, drawn at random, of about 17,000 reagents tested. Of all reagents, about 1,110 (6.6%) got an active call. 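Active means lowered or raised reporter signal; replicate intensities are raw and not normalised per plate.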 A number with no mark means an inactive call. Further read-outs or replicates are left out here. Reagent sequences are not shown.

Tle4 (transducin-like enhancer of split 4) | Tnf reporter robust z-score = 0.44; fewer than 50 cells in well = enough cells in well
Cckbr (cholecystokinin B receptor) | Tnf reporter robust z-score = 0.61; fewer than 50 cells in well = enough cells in well
Klrk1 (killer cell lectin-like receptor subfamily K, member 1) | fewer than 50 cells in well = fewer than 50 cells per well; well left out of calls
Cd8a (CD8 subunit alpha) | Tnf reporter robust z-score = 2.98; fewer than 50 cells in well = enough cells in well
Gp1bb (glycoprotein Ib, beta polypeptide) | Tnf reporter robust z-score = 0.01; fewer than 50 cells in well = enough cells in well
Zfyve9 (zinc finger, FYVE domain containing 9) | Tnf reporter robust z-score = 0.35; fewer than 50 cells in well = enough cells in well
Isyna1 (myo-inositol 1-phosphate synthase A1) | Tnf reporter robust z-score = 0.61; fewer than 50 cells in well = enough cells in well
Iars1 (isoleucyl-tRNA synthetase 1) | Tnf reporter robust z-score = 1.14; fewer than 50 cells in well = enough cells in well

In a second layout: 2 of the entries above
gene knocked down | Tnf reporter robust z-score | fewer than 50 cells in well
Klrk1 (killer cell lectin-like receptor subfamily K, member 1) | – | fewer than 50 cells per well; well left out of calls
Cd8a (CD8 subunit alpha) | 2.98 | enough cells in well

Additional reagents:
Atp6v1f (ATPase, H+ transporting, lysosomal V1 subunit F) | Tnf reporter robust z-score = 1.32; fewer than 50 cells in well = enough cells in well
Irak1bp1 (interleukin-1 receptor-associated kinase 1 binding protein 1) | Tnf reporter robust z-score = -0.4; fewer than 50 cells in well = enough cells in well
Lingo2 (leucine rich repeat and Ig domain containing 2) | Tnf reporter robust z-score = -0.08; fewer than 50 cells in well = enough cells in well
Aasdhppt | Tnf reporter robust z-score = 1.88; fewer than 50 cells in well = enough cells in well
